Experimental findings from article PMC10560722 are described below.

Results are given in words; binding and its absence hold for the method and conditions named. For some assays here: Binding seen in cells or lysates may run through a third protein. Some results given as binding are weak or reduced against the parent protein; the word gives no strength. For some assays here: Sequences can lack the tags named with a protein.

In experiment [1] the target is T1, miniDKC1∆cat (truncated human dyskerin) two-hybrid bait (human) (UniProt O60832).
T1 sequence: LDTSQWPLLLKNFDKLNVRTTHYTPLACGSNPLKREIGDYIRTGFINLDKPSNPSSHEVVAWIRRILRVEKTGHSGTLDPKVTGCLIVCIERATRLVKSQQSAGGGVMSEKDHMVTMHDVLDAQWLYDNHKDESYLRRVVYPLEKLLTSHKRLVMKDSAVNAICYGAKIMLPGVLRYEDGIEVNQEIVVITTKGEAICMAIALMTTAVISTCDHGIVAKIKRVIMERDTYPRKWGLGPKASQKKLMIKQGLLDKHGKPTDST
Description: two-hybrid; strain AH109; miniDKC1∆cat as bait (pGBKT7), hSHQ1 or variants as prey (pGADT7); growth on SDex-Trp-Leu-His plates with various concentrations of 3-AT, 4 days at 30°C.

For experiment [2], the target named is T2, human SHQ1 with a C-terminal FLAG tag (wild-type) (human) (UniProt Q6PI26).
T2 sequence: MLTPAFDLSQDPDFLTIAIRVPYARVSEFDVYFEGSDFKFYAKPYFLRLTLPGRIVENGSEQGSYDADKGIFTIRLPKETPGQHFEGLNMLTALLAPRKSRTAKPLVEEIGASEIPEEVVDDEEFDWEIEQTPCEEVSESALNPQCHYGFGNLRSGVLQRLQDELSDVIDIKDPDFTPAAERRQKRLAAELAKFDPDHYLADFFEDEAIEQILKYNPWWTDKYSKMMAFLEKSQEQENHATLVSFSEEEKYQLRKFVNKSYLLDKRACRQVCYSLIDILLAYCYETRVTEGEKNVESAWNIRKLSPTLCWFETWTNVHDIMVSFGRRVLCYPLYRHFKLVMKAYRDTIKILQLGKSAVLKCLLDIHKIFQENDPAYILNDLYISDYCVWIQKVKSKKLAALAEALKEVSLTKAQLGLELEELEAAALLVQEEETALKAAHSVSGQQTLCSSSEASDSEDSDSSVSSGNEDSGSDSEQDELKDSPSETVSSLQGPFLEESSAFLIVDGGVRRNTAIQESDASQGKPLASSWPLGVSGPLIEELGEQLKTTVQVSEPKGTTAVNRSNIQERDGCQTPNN
Description: co-IP; anti-FLAG M2 affinity gel with whole cell extracts of yeast strain YSO12 expressing hSHQ1-FLAG or variants, cells shifted to SDex-Ura for 2 h at 30°C; TMN100 buffer (25 mM Tris-HCl pH 7.9, 10 mM MgCl2, 100 mM NaCl, 0.1% NP-40, 1 mM DTT), 4°C, 2 h; Western blot with anti-myc; uncoated beads as control. (In general: A western blot detects proteins with antibodies after separation by electrophoresis.)

The target of experiment [3] is T3, human SHQ1 variant A426V with a C-terminal FLAG tag (human) (UniProt Q6PI26).
T3 sequence: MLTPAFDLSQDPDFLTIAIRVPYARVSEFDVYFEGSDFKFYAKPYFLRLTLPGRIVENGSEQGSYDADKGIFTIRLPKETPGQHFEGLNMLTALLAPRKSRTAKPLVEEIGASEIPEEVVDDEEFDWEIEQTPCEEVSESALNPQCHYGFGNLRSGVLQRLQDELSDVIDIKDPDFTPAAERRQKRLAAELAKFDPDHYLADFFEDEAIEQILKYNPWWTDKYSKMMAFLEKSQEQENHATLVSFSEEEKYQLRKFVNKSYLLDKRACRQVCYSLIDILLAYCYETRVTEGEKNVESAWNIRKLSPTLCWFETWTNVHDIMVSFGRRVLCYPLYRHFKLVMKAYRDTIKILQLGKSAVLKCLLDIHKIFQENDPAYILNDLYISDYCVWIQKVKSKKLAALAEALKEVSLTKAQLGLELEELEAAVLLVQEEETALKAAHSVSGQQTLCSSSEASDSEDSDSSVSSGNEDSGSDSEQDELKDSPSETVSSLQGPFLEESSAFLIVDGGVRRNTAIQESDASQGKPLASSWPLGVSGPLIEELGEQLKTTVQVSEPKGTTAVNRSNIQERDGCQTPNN
Described as above.

Experiment [4] concerns the target T4, human SHQ1 variant R335C with a C-terminal FLAG tag (human) (UniProt Q6PI26).
T4 sequence: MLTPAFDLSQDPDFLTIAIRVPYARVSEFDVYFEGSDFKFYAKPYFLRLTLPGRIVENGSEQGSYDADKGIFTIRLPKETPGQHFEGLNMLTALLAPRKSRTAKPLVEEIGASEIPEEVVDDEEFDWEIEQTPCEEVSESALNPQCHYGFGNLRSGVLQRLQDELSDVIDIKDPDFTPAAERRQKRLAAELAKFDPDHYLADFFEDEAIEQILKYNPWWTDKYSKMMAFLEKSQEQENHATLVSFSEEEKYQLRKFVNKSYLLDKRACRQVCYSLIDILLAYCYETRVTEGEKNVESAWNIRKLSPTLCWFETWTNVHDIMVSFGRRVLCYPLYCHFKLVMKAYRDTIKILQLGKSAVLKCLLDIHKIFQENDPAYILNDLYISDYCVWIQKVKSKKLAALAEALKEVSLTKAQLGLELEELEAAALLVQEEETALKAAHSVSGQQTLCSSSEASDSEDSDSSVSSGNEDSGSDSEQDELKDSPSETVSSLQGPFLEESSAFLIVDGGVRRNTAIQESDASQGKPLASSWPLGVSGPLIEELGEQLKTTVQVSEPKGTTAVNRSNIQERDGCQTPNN
The description is as above.

B1: human SHQ1 (wild-type) two-hybrid prey (protein, UniProt Q6PI26 1-577)
chain: MLTPAFDLSQDPDFLTIAIRVPYARVSEFDVYFEGSDFKFYAKPYFLRLTLPGRIVENGSEQGSYDADKGIFTIRLPKETPGQHFEGLNMLTALLAPRKSRTAKPLVEEIGASEIPEEVVDDEEFDWEIEQTPCEEVSESALNPQCHYGFGNLRSGVLQRLQDELSDVIDIKDPDFTPAAERRQKRLAAELAKFDPDHYLADFFEDEAIEQILKYNPWWTDKYSKMMAFLEKSQEQENHATLVSFSEEEKYQLRKFVNKSYLLDKRACRQVCYSLIDILLAYCYETRVTEGEKNVESAWNIRKLSPTLCWFETWTNVHDIMVSFGRRVLCYPLYRHFKLVMKAYRDTIKILQLGKSAVLKCLLDIHKIFQENDPAYILNDLYISDYCVWIQKVKSKKLAALAEALKEVSLTKAQLGLELEELEAAALLVQEEETALKAAHSVSGQQTLCSSSEASDSEDSDSSVSSGNEDSGSDSEQDELKDSPSETVSSLQGPFLEESSAFLIVDGGVRRNTAIQESDASQGKPLASSWPLGVSGPLIEELGEQLKTTVQVSEPKGTTAVNRSNIQERDGCQTPNN
With B1, the binding result in experiment [1] is “binds”.

B2: human SHQ1 variant A426V two-hybrid prey (protein, UniProt Q6PI26 1-577)
chain: MLTPAFDLSQDPDFLTIAIRVPYARVSEFDVYFEGSDFKFYAKPYFLRLTLPGRIVENGSEQGSYDADKGIFTIRLPKETPGQHFEGLNMLTALLAPRKSRTAKPLVEEIGASEIPEEVVDDEEFDWEIEQTPCEEVSESALNPQCHYGFGNLRSGVLQRLQDELSDVIDIKDPDFTPAAERRQKRLAAELAKFDPDHYLADFFEDEAIEQILKYNPWWTDKYSKMMAFLEKSQEQENHATLVSFSEEEKYQLRKFVNKSYLLDKRACRQVCYSLIDILLAYCYETRVTEGEKNVESAWNIRKLSPTLCWFETWTNVHDIMVSFGRRVLCYPLYRHFKLVMKAYRDTIKILQLGKSAVLKCLLDIHKIFQENDPAYILNDLYISDYCVWIQKVKSKKLAALAEALKEVSLTKAQLGLELEELEAAVLLVQEEETALKAAHSVSGQQTLCSSSEASDSEDSDSSVSSGNEDSGSDSEQDELKDSPSETVSSLQGPFLEESSAFLIVDGGVRRNTAIQESDASQGKPLASSWPLGVSGPLIEELGEQLKTTVQVSEPKGTTAVNRSNIQERDGCQTPNN
With B2, the binding entry in experiment [1] is listed as “binds”.

B3: myc-tagged Cbf5 (yeast pseudouridine synthase, homologue of dyskerin) (enzyme, UniProt P33322 1-483)
chain: MSKEDFVIKPEAAGASTDTSEWPLLLKNFDKLLVRSGHYTPIPAGSSPLKRDLKSYISSGVINLDKPSNPSSHEVVAWIKRILRCEKTGHSGTLDPKVTGCLIVCIDRATRLVKSQQGAGKEYVCIVRLHDALKDEKDLGRSLENLTGALFQRPPLISAVKRQLRVRTIYESNLIEFDNKRNLGVFWASCEAGTYMRTLCVHLGMLLGVGGHMQELRRVRSGALSENDNMVTLHDVMDAQWVYDNTRDESYLRSIIQPLETLLVGYKRIVVKDSAVNAVCYGAKLMIPGLLRYEEGIELYDEIVLITTKGEAIAVAIAQMSTVDLASCDHGVVASVKRCIMERDLYPRRWGLGPVAQKKKQMKADGKLDKYGRVNENTPEQWKKEYVPLDNAEQSTSSSQETKETEEEPKKAKEDSLIKEVETEKEEVKEDDSKKEKKEKKDKKEKKEKKEKKDKKEKKEKKEKKRKSEDGDSEEKKSKKSKK
B3: the binding result in experiment [2], in experiment [3] and in experiment [4] was “binds” throughout.
